Among the data in PubChem BioAssay AID1645887 (National Center for Advancing Translational Sciences (NCATS), 2021) are activation values, retold here.

Protein sequences, listed by entry. Tags and fused reporters are not part of them. Lines headed by an entry give the natural chain unless they say otherwise; changes in a name come on top.
UniProt Q8WZA2: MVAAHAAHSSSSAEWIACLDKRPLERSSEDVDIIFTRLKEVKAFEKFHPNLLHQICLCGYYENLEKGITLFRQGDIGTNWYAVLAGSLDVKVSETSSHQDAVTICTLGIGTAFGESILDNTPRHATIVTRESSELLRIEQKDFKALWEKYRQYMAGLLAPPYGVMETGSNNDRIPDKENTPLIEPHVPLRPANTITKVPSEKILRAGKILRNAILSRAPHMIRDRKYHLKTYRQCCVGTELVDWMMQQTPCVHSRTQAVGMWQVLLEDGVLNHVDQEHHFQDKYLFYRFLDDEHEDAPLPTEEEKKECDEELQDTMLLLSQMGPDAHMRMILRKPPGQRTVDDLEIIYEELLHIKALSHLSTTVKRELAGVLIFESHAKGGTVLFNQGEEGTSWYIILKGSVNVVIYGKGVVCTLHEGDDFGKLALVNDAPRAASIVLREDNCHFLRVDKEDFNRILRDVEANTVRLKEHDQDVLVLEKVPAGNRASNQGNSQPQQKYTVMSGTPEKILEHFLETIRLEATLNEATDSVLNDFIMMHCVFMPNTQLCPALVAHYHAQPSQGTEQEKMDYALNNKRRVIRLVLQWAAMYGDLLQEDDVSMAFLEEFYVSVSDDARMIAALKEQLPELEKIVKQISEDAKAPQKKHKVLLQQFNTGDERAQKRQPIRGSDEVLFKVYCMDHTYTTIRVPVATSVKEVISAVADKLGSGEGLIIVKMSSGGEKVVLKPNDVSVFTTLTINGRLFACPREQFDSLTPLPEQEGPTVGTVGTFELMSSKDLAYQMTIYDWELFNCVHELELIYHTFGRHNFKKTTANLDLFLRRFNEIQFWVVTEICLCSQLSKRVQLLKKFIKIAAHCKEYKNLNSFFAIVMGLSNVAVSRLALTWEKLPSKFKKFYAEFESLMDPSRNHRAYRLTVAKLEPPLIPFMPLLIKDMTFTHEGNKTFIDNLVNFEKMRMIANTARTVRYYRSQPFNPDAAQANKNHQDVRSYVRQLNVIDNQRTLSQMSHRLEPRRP

The structures appear in SMILES notation. Values joined by “and” are separate entries in the source; they are usually repeats but may differ in a detail not shown here. Identical values can stand only once. The hits were mostly taken out for another list; the other results follow. Active and inactive are the calls of the source. Calls come from the whole dose curve; as a rule, active = well fitted activation curve with a large enough effect; inconclusive = small, poorly fitted or top-dose-only effect, or another doubt; inactive = no such curve, though single readings can be large or run the other way.
% is set by controls: 0 for no effect and ±100 for the full control effect.

The assay concerns the target Rap guanine nucleotide exchange factor 4 (Homo sapiens) (UniProt Q8WZA2). Briefly: Validation qHTS for agonist of cAMP-regulated guanine nucleotide exchange factor 4 (EPAC2).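 Note: exchange makes BODIPY-GDP fluorescence drop when released from Rap1B; series mostly up to about 150 µM.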 The conditions noted are these: EPAC2 Rap1B BODIPY-GDP exchange, fluorescence; hits give high values. The text has this:
Principle Investigator: Xiaodong Cheng Ph.D.
The University of Texas Medical Branch, […], TX
In multi-cellular eukaryotic organisms, the effects of cAMP are transduced by two ubiquitously-expressed intracellular cAMP receptors, the classic protein kinase A/cAMP-dependent protein kinase (PKA/cAPK) and the more recently discovered exchange protein directly activated by cAMP/cAMP-regulated guanine nucleotide exchange factor (EPAC/cAMP-GEF). Both PKA and EPAC are ubiquitously expressed in all tissues, and an increase in intracellular cAMP levels will lead to the activation of both PKA and EPAC. Therefore, careful dissections of the individual role and relative contribution of EPAC and PKA within the overall cAMP signaling in various model systems are critical for further elucidating the mechanism of cAMP signaling. To date no EPAC-specific antagonists and agonist, as well as isoform-specific agonists have been reported, and developing EPAC-specific pharmacological probes to determine the physiological functions that EPAC play in the overall cAMP-mediated signaling remains a major challenge within the research field. […]
This qHTS will be used to screen the Molecular Libraries Small Molecule Repository (MLSMR) as a concentration-titration series using the NCGC unique quantitative screening (qHTS) platform to find activators for EPAC1. […] Activators are identified by monitoring the change in fluorescence signal as the exchanged free BODIPY-GDP has a reduced fluorescence compared to Rap1-bound BODIPY-GDP. […]
Briefly, three uL of reagents (100 nM EPAC2, 250 nM RAP1B-BODIPY-GDP, 50 uM GDP) were dispensed into a 1536-well Greiner black solid-bottom medium binding assay plate. […] The assay plates were read at 5 minute intervals for 30 minutes in the ViewLux plate reader using 480nm excitation and 540nm emission filters. […]
As for `Cc1c(C(=O)NN2CCCCC2)nn(-c2ccc(Cl)cc2Cl)c1-c1ccc(I)cc1`, the activation was inactive: 4.09%.

For `Cc1cccc(CCN2CCC(C(=O)c3ccc(NS(C)(=O)=O)cc3)CC2)n1`, the activation was inactive: -23.1% and inactive: 4.54% and inactive: -10.4%.

As to `Nc1ccc(N)c([N+](=O)[O-])c1`, the activation is inactive: -21.7%.
